The results in this text go back to article PMC4570275.

The chains behind the UniProt entries cited, without tags or fusion partners. Residues count along the entry.
UniProt P25799, residues 1-431: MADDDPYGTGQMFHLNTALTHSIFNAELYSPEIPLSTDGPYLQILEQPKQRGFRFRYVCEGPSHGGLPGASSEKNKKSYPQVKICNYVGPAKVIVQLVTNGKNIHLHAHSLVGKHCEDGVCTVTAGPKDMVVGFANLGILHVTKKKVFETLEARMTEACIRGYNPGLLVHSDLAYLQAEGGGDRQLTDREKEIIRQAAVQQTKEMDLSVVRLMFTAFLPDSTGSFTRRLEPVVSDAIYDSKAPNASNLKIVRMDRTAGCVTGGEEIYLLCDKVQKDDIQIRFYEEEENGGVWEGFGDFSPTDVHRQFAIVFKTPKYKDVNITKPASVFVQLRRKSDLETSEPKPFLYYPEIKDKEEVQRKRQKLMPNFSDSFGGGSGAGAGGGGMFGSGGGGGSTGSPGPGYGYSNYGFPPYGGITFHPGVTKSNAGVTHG
UniProt O09106: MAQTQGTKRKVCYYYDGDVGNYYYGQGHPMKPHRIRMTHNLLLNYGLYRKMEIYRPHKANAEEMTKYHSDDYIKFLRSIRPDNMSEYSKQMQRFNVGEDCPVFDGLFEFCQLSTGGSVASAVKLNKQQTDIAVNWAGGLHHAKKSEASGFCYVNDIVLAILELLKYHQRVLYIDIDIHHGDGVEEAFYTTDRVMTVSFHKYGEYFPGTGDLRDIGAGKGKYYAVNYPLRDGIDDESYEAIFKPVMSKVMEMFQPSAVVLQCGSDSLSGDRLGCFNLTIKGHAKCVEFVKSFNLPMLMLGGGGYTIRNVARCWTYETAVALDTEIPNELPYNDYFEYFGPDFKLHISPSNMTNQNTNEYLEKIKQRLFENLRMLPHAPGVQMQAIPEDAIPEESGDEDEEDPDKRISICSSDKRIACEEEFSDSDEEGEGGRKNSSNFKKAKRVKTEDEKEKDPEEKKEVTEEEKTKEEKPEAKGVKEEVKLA
UniProt P70288: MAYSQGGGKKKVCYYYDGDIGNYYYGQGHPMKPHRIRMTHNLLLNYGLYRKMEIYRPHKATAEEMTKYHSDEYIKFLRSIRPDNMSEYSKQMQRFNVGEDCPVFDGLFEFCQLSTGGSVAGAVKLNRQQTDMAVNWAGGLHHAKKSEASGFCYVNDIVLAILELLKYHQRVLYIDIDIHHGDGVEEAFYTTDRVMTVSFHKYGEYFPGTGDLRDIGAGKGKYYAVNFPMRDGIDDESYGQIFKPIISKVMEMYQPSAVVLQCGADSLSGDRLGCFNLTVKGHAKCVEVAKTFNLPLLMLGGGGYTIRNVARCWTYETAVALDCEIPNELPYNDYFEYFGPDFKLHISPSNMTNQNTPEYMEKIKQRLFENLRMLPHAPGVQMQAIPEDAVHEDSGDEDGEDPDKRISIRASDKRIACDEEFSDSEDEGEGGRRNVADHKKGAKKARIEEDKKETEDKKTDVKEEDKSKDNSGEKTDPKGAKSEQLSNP
UniProt Q8BKJ9: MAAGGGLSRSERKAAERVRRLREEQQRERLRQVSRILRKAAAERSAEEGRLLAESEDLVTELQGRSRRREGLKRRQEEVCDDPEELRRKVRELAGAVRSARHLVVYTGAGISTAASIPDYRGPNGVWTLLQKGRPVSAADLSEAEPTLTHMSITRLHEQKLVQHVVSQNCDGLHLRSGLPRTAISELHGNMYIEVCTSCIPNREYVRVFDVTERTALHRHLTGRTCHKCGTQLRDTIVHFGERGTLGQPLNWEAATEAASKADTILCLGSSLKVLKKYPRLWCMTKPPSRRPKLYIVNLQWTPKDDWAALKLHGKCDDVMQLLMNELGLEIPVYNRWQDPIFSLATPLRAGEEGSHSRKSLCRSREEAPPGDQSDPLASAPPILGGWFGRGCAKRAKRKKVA

For assay [1], the target named is T1, Flag-tagged Foxp3 (mouse) (UniProt Q99JB6).
T1 sequence: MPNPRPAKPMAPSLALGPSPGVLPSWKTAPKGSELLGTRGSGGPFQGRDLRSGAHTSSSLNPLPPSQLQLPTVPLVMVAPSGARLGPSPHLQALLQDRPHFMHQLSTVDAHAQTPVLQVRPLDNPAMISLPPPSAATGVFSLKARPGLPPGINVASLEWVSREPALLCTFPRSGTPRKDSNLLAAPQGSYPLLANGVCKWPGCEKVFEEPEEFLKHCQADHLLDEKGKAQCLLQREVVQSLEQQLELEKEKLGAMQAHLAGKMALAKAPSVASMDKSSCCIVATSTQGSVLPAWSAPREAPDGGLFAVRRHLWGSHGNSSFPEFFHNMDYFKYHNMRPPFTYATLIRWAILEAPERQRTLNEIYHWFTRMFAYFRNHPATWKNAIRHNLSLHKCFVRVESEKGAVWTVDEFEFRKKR
Put plainly: co-IP; lysate of mouse CD4+ T cells transduced with FLAG-Foxp3 retrovirus, iTreg-culturing conditions with GITR costimulation, 48 h; anti-FLAG (F1804) or normal mouse IgG, Protein G agarose; immunoblot with anti-HDAC1, anti-HDAC2, anti-Sirt1 and anti-Sirt7.

For assay [2], the target named is NF-κB family member p50 (mouse (endogenous in CD4+ T cells of C57BL/6 mice)) (UniProt P25799). Nature of the assay: co-IP; lysate (IP lysis buffer) of mouse naive CD4+ T cells activated under iTreg-polarizing conditions (TGF-β plus IL-2) with GITR costimulation (DTA-1); anti-p50 (sc-1192) or control goat IgG at 4 °C overnight, Protein G agarose, four washes; immunoblot of the precipitates. (In western blotting, separated proteins are transferred to a membrane and probed.)

No constants are given. Whether binding was seen depends on the method and setting. Binding seen in cells or lysates may run through a third protein. Some binding calls cover weakened binding; strength is not graded here. For some of these results: Sequences can lack the tags named with a protein.

On to “HDAC1 (from UniProt O09106 1-482) (enzyme)”, for which the binding entry in assay [1] and in assay [2] was “binds” each time.

For “HDAC2 (from UniProt P70288 1-488) (enzyme)”, the binding result in assay [1] is listed as “binds”.

As for “Sirt7 (from UniProt Q8BKJ9 1-402) (enzyme)”, the binding entry in assay [1] is “binds”.
